Library screen at single concentrations

Amino acid sequences for entries named in this document (tags omitted). Residues count along the entry.
UniProt Q8IDJ8, 1-583: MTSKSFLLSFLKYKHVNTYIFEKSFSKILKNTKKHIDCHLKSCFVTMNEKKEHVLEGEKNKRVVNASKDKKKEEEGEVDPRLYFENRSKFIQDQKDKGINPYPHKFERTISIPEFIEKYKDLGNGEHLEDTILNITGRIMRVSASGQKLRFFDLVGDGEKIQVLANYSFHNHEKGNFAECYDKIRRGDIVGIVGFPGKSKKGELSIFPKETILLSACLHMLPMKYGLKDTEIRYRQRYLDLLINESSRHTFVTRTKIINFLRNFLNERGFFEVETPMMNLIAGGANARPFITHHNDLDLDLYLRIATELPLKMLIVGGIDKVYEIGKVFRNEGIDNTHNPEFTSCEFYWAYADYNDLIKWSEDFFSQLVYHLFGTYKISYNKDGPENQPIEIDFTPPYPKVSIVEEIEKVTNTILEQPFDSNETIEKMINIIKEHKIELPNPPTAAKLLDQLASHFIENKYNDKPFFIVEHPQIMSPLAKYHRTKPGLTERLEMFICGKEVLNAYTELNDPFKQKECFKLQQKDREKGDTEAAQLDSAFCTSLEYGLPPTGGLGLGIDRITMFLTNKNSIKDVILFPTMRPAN

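Enzyme assay of the cytosolic lysyl-tRNA synthetase in 384-well plates, read by luminescence. Target: Lysine-tRNA ligase, Plasmodium falciparum 3D7 (UniProt Q8IDJ8). Concentration: 30 µM. Higher reads as stronger inhibition, judged from the few compounds that gave an IC50. About 69,000 compounds were tested under these conditions; 0.071% (about 49) showed 50% or more at least once.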

Results are given as percent effect. The record does not define 0% and 100%; most values in the screen are far below 50% and negative numbers occur (in some assays of this library far below -100). The compounds are a random part of those screened.

| structure | effect |
|---|---|
| `O=C(c1cc(Cl)c[nH]1)N1CCCC(c2cc(C(F)(F)F)[nH]n2)C1` (configuration not stated) | -0.3175 |
| `Cc1nnc(Nc2cccc(C3CCN(Cc4ncc[nH]4)CC3)n2)s1` | 0.5774 |
| `Cc1cc(C)c(CNC(=O)NCc2cc(F)cc(F)c2)c(=O)[nH]1` | 1.482 |
| `COc1cc2nc(C)n(CC(=O)NCCCO)c(=O)c2cc1OC` | -1.1 |
| `Cc1cccc(OCCSCCn2nc3ccccn3c2=O)c1` | 3.65 |
| `NC(=O)CC1CCN(C(=O)NCC2(c3ccccc3F)CC2)CC1` | 4.652 |
| `Cc1ncsc1C(=O)NC1CCN(CC(=O)N(C)C(C)(C)C#N)CC1` | -3.71 |
| `CS(=O)(=O)N1C[C@@H](O)[C@H](N2CCN(c3ccccc3)CC2)C1` | -2.26 |
| `N[C@H]1CN(S(=O)(=O)Cc2ccccc2)C[C@@H]1C1CC1` | -0.1682 |
| `COc1ccc(CN2C[C@@H]3OCCN(C)[C@@H]3C2)cc1` | 0.08209 |
| `Cc1ccc(CN(C)C(=O)CNC(C)(C)c2noc(C(C)(C)C)n2)o1` | 2.773 |
| `CC(C)n1cc(C(=O)N2CCC(n3cc(C(C)(C)C)nn3)CC2)cn1` | 5.176 |
| `COc1cccc(Nc2nc(C3CCNCC3)c3sc(C)c(C)n23)c1` | 0.7403 |
| `CC(=O)Nc1ncc(S(=O)(=O)Nc2ccc(C)cc2)s1` | -0.1689 |
| `Cc1nnc(NCCc2nc3ccc(F)cc3n2C)c(C#N)c1C` | 4.362 |
| `CCOC(=O)C1CCN(C(=O)CN2CCCC2c2ccsc2)CC1` (configuration not stated) | 3.482 |
| `CC(C)COCc1cncc2c1CCN(C(=O)c1cscn1)C2` | 4.91 |
| `COc1ccc(NC(=O)C2CC(=O)n3cnnc3S2)cc1` (configuration not stated) | 4.376 |
| `O=C(CCNc1ncccn1)Nc1ccc(Cn2cncn2)cc1` | 0.4026 |
| `Cc1cc(CN2CCCC2c2noc(C)n2)no1` (configuration not stated) | 2.62 |
| `CC(O)CN1CCC(CNCc2cccc(OC(F)(F)F)c2)CC1` (configuration not stated) | 1.641 |
| `CCC(C)C(=O)Nc1ccc2oc(=O)n(CCN(C)C)c2c1` (configuration not stated) | 7.113 |
| `CC(C)c1nn(C)c(N(C)C)c1CNCCC(=O)N(C)C` | -2.968 |
| `CCNc1ccnc(CN2CCCC2C(=O)Nc2nccs2)c1` (configuration not stated) | 4.319 |
| `CCS(=O)(=O)N1CCOC2(CCCN(c3ccc(C)nn3)C2)C1` (configuration not stated) | 5.861 |
| `Cc1noc(C)c1C(=O)NCc1ccc(N2CCOC(C)C2)nc1` (configuration not stated) | 3.792 |
| `COC(=O)COn1c(SCC(=O)OC)nc2ccccc2c1=O` | 1.813 |
| `CCCS(=O)(=O)N1C[C@@H](Oc2ccccn2)[C@H]2OCCC[C@H]21` | -0.2717 |
| `CO[C@@H]1CC[C@H]2[C@H]1OCCN2Cc1ccc(F)c(F)c1` | 4.199 |
| `O=C1N(c2ccccc2)Cc2n[nH]c(=O)n21` | -1.324 |
| `Cc1ccc(CN[C@@H]2COC[C@H]2c2ccc(F)cc2)cc1C` | 0.8869 |
| `CC(=O)NCCc1cc(N2CCN(C(C)=O)CC2)nc(C2CC2)n1` | 5.098 |
| `Cc1nc(N2CCOCC2)nc2c1CN(CC(=O)N(C)C)CC2` | 3.038 |
| `CCN(Cc1ccncc1)C1CCN(c2ccccc2)C1=O` (configuration not stated) | 2.684 |
| `Cc1cccc(S(=O)(=O)NCC2CCN(c3cnccn3)CC2)c1` | -1.763 |
| `COc1cc(OC)cc(-c2noc(CC(N)c3ccccc3)n2)c1` (configuration not stated) | 2.009 |
| `CCS(=O)(=O)N1Cc2ncn(CC3CC3)c2C(COC)C1` (configuration not stated) | -1.25 |
| `Fc1ccc2c(c1)C1(CCNCC1)CC2OCC1CC1` (configuration not stated) | 0.7933 |
| `Cn1c(=O)oc2cc(S(=O)(=O)N3CCC(c4ccccc4)C3)c(Cl)cc21` (configuration not stated) | 2.684 |
| `Cc1cccc(S(=O)(=O)N2C[C@@H]3C[C@@H](c4nc(C)no4)O[C@@H]3C2)c1` | 0.7485 |
| `Cc1cccc(CCNC(=O)CCS(=O)(=O)C2CCCC2)c1` | 2.848 |
| `CCOc1ccc(C#N)cc1NCC(=O)NC1(C#N)CCCC1` | 0.6605 |
| `CCC(C(=O)NC1(CN2CCOCC2)CCCC1)n1cccn1` (configuration not stated) | -1.051 |
| `COCC(=O)Nc1cc(S(=O)(=O)C(F)(F)F)ccc1OC` | 8.028 |
| `Cc1ccc2c(cnn2CCC(=O)NCc2csc(C)n2)c1` | -0.04573 |
| `CCc1nc(CN2CCCN(c3nn4cc(C)nc4s3)CC2)no1` | -4.137 |
| `Cc1cccnc1N1CC2(CCN(Cc3cnn(C)c3)C2)C1` | -1.242 |
| `COCCC(C)NC(=O)N1CCC(n2ccc(C(F)(F)F)n2)CC1` (configuration not stated) | 3.659 |
| `CC(C)C(C)(C#N)NC(=O)Cn1cc(Cl)cn1` (configuration not stated) | 3.575 |
| `Cn1nccc1C(=O)N1CCC2(CC1)COC(COc1ccccn1)C2` (configuration not stated) | 3.137 |
| `COc1cccc(C(=O)N2CCN(C(=O)CCCc3cn[nH]c3)CC2)c1` | 2.509 |
| `CC(O)CN1CCC(CNCc2c[nH]nc2C(C)(C)C)CC1` (configuration not stated) | -4.094 |
| `CCc1ccc(C2NCCc3cc4c(cc32)OCCO4)cc1` (configuration not stated) | 4.75 |
| `CCOC(=O)c1sc2ccsc2c1CN` | -1.844 |
| `O=C(c1ccncc1)N1CCc2[nH]nc(Nc3ccccc3)c2C1` | -1.274 |
| `CC(C)n1ccnc1CN1CCCN(C(=O)CC2C=CCC2)CC1` (configuration not stated) | -5.686 |
| `COC(=O)C1CN(Cc2ccn(-c3ccc(F)cc3)n2)CCO1` (configuration not stated) | 3.857 |
| `CCCS(=O)(=O)NC(C)c1cccc(-n2cccn2)c1` (configuration not stated) | 2.034 |
| `Cc1cc(N2CCN(C(=O)C(C)n3ccnc3C(C)C)CC2)cc(C)n1` (configuration not stated) | -0.02323 |
| `CC(C)NC(=O)COc1nc(C(C)C)no1` | -2.058 |
| `CN(C)CCOCc1nnc2n1CCN(Cc1ccc(F)cc1)CC2` | 2.831 |
| `CCC1c2ccsc2CCN1C(=O)NCc1ccccn1` (configuration not stated) | -1.665 |
| `Cc1ccc(-c2nc(C(=O)N3CCCC(C(N)=O)C3)cs2)c(C)c1` (configuration not stated) | 0.7128 |
| `Cc1ccccc1NC(=O)c1cncc(C2CCNCC2)n1` | 2.993 |
| `Cc1cccc(NC(=O)Nc2c[nH]c(=O)[nH]c2=O)c1C` | 4.297 |
| `Cc1nc(C)n(CC2CN(CCn3cccn3)CCO2)n1` (configuration not stated) | -1.32 |
| `O=C(NS(=O)(=O)c1ccc(F)cc1)C1CCOc2ccccc21` (configuration not stated) | 3.035 |
| `O=S(=O)(CCCN1CCc2c(ncn2C2CC2)C1)c1ccccc1` | 1.733 |
| `Cn1cnc2c1CCN(CCS(=O)(=O)c1ccccc1)C2` | 5.204 |
| `Cc1noc(C)c1CN1CCC(N(C)Cc2noc(C(C)C)n2)C1` (configuration not stated) | 4.672 |
| `Cc1nnc(CCNC(=O)C2CC(=O)N(C(C)(C)C)C2)s1` (configuration not stated) | -3.181 |
| `CC(=O)NC(Cc1c[nH]c2cc(F)ccc12)C(=O)Nc1nncs1` (configuration not stated) | 4.087 |
| `C[C@@H]1CN(Cc2nc(C(N)=O)no2)CC[C@@]1(O)C1CC1` | -0.8823 |
| `CC1(C2CCN(CCCC(=O)O)CC2)CN(Cc2ccccc2)C(=O)O1` (configuration not stated) | -0.2431 |
| `COCc1nc(N(C)C)ncc1C(=O)NC(C)c1ccccc1` (configuration not stated) | 3.209 |
| `CC(=O)N1N=C(c2ccccc2)OC1C(=O)NCCOc1ccccc1` (configuration not stated) | 1.37 |
| `CN1C(=O)CCC12CCCN(Cc1nccs1)C2` (configuration not stated) | 0.6033 |

6 of the entries, repeated:

With COc1cccc(C(=O)N2CCN(C(=O)CCCc3cn[nH]c3)CC2)c1 the screen gave 2.509%.
With N[C@H]1CN(S(=O)(=O)Cc2ccccc2)C[C@@H]1C1CC1 the screen gave -0.1682%.
With Cc1cccc(S(=O)(=O)N2C[C@@H]3C[C@@H](c4nc(C)no4)O[C@@H]3C2)c1 the screen gave 0.7485%.
With Cc1cc(N2CCN(C(=O)C(C)n3ccnc3C(C)C)CC2)cc(C)n1 (configuration not stated) the screen gave -0.02323%.
With Cc1nc(N2CCOCC2)nc2c1CN(CC(=O)N(C)C)CC2 the screen gave 3.038%.
With Cc1nnc(NCCc2nc3ccc(F)cc3n2C)c(C#N)c1C the screen gave 4.362%.

Source: ChEMBL document CHEMBL3988442, “University of Dundee, Small-Polar-MMV Screening Library” (2021).